Results as given in PMC10163288.
Some of the results follow.

B1: il2ra_site1_1z92_normal_mot_HHH_b1_00368_000000203_0001_23_39_H_._HHH_b2_01204_0001_0000400077_0000001_0_af2pred_0001_af2pred_1 (protein)
chain: SSSSDDIAKNLVRVLVRAAGLSEEAEEELEELAKRLLEEGYSPEEISRILHKLALELDERLSSSS
B2: il2ra_site1_1z92_sap_19_mot_HHH_b2_07164_000000082_0001_1_15_H_._ddd5b65e98111f608b3a4ab1c0de386d_0001_af2_0001_0000800012_0000001_0_0001_af2pred_0001_af2pred_s … (protein)
chain: SSSSDEARRLAKLVAELAREYGASDEVFLELSRLADELFARGLSEEEIEELLKRLIEELLSSSSS
B3: il2ra_site1_3nfp_sap_16_mot_HHH_b1_00739_000000172_0001_19_38_H_._HHH_b1_07028_af2_0001_0000600035_0000001_0_0001 (protein)
chain: SAMEISRILRKLLRRVPPEVRKLLQEVLRLLVRGNPEEAEKVLEEILELVGDPLVEELLELVRKW
B4: il2ra_site2_2erj_normal_mot_HHH_b1_06608_000000059_0001_22_39_H_._HHH_b2_01923_0001_0000300007_0000001_0_1_af2pred_0001_af2pred (protein)
chain: SSSSSSDLEELLEEIKEAIEEGDEELAARLLSEAIQLADEEGDEETLKELLRLVELVFSSSSSSS
B5: il2ra_site2_3nfp_sap_13_mot_HHH_b1_08097_000000036_0001_22_39_H_._3020bb65e3c0c4c1750efda2a61ed53f_0001_1_af2_0001_0000400015_0000001_0_0001 (protein)
chain: SSSSDEERERAEELFELIEELREEGDEERLLEALWELMRLAFEVGDPKLAEISNRAYEIVQSSSS
B6: il2ra_site1_2b5i_sap_17_mot_2cbe48e66a1f39b3fed734b245ab0a04_0001_000000015_0001_17_31_H_._HHH_b1_01921_0001_0000600034_0000001_0_0001_af2pred_dldesign_0_af2pre … (protein)
chain: SSSSSDVKEVLELFEEANKLFQAGKPEEAKEVLEKALEKAKALGAEAHIRIIESALEQLESSSSS
B7: il2ra_site2_2erj_normal_mot_HHH_b1_00821_000000191_0001_1_20_H_._HHH_b1_06496_0002_0000200014_0000001_0 (protein)
chain: SSSSSDVQERVLELLFEAIRIIDPEEREKVLEEARQLAEERNDEEAKLAVETFERYEERLSSSSS
B8: il2ra_site1_2b5i_sap_18_mot_HHH_b2_02828_af2_000000092_0001_43_56_H_._HHH_b1_08026_0001_0000100002_0000001_0_0001_af2pred_dldesign_0_af2pred (protein)
chain: SSSSSEDRLEARRLFFEADRLKQAGKEEEAKEALEKAKELAEKAGNKLLKKQIELALASLSSSSS
B9: il2ra_site2_3nfp_sap_14_mot_HHH_b1_00660_af2_000000090_0001_40_57_H_._HHH_b2_06962_0001_0000100006_0000001_0_0001_af2pred_0001_af2pred_swapped (protein)
chain: SSSSDREEVEELLRELEEAVRRNDEELFRELAHRISKLIREIGDAELFFILVELRLEFLRSSSSS
B10: il2ra_site2_3nfp_sap_13_mot_HHH_b1_00487_000000023_0001_40_53_H_._HHH_b1_01657_af2_0001_0000400022_0000001_1_0001 (protein)
chain: SDAEAAELALRLIRAHALVHNDDEVREEVEKLEEELKEAKEKNDEELVEEIAERASELAEKVANS
B11: il2ra_site1_3nfp_sap_13_mot_HHH_b2_06502_000000119_0001_42_55_H_._HHH_b2_07191_af2_0001_0000400036_0000001_0_0001 (protein)
chain: GPEVERKLVEQALRLNSPRLLKKILRDAERFHGDPEEAERWLSELIAEVLKVPPEEAQEIVEEVK
B12: il2ra_site1_1z92_sap_20_mot_HHH_b1_00561_af2_000000294_0001_1_19_H_._HHH_eva_0050_af2_0002_0000400070_0000001_0_0001 (protein)
chain: SSSSSNLERALRQAVEIAVELAGLSEEQREELEEVARELVEKGVDPLEALKILDRVALELSSSSS
B13: il2ra_site1_1z92_normal_mot_HHH_b1_00108_af2_000000035_0001_38_51_H_._HHH_b2_06226_af2_0001_0000300019_0000001_0 (protein)
chain: SSSSSSEEERTERAQELFRQAARITDREEVERLLEEALELAKEANNENIKRDIEQYLEMLSSSSS
B14: il2ra_site2_2erj_normal_mot_HHH_b2_03913_af2_000000182_0001_1_19_H_._HHH_b2_00910_af2_0001_0000700018_0000001_0 (protein)
chain: SSSSQEAAELLARAWREAAKLFRNGNPEEAEEVLEEYAKEVEKLGDEEALEAIERFLKFLTSSSS
B15: il2ra_site1_1z92_sap_17_mot_00a0fa73c9dbd8f1f8571bd9de0225d9_0001_af2_000000011_0001_1_12_H_._80559a6cc29e48f8bbd5a2a34f257aa3_0001_0001_0000100009_0000001_1_00 … (protein)
chain: NLRAEDLREAVEKNDEEELRKFIRLLLEDSGDPRLVKQLLRELVKRLGLPPEVLERLEELLEELT
B16: il2ra_site2_3nfp_normal_mot_HHH_b2_04230_000000235_0001_39_52_H_._72a79b14e1a0e827e78e129a6f5f8f0c_0001_1_0001_0000200015_0000001_0 (protein)
chain: DREFSQRIFELAREGDPVAFLLYALLAEVAFKGDPELRRLLEEALEALERGNPEEAEEIVHKALQ
B17: il2ra_site1_3nfp_normal_mot_HHH_b2_08102_af2_000000255_0001_38_50_H_._HHH_b2_07461_af2_0001_0000100011_0000001_0_af2pred_0001_af2pred_swapped (protein)
chain: SSSSNEEFRKATELSKELLEALKRGDEEEARRLAEELLELARRLGSRIAEEFAEAVRERLSSSSS
B18: il2ra_site1_1z92_sap_22_mot_HHH_b1_05516_af2_000000202_0001_21_38_H_._HHH_b2_07203_0001_0000400022_0000001_0_0001_af2pred_0001_af2pred_swapped (protein)
chain: DDEAARYDLERSLKLGIPPEAVVKAVLRALERFLGDPEEALEVIERAIKLLNDPELEEVVEKLKP
B19: il2ra_site2_2erj_sap_24_mot_HHH_b2_01191_000000089_0001_39_55_H_._cf47d7165ffc3c79bdff036d7a8fd663_0001_1_0001_0000100002_0000001_0_0001 (protein)
chain: SSSSSDLLHRAYELANKLLHLVARKDEERFEEISEEFREIVERLQSENAREILENLERLLSSSSS
B20: il2ra_site1_3nfp_normal_mot_HHH_b1_07644_af2_000000110_0001_40_57_H_._HHH_b1_08167_af2_0001_0000100004_0000001_0 (protein)
chain: SSSSDERVEQASKLAKELWKAFRDGDEELVEELFEEVRRLAEELGDKIAEKLVRQLRELSNSSSS
B21: il2ra_site1_2b5i_normal_mot_HHH_b1_08426_af2_000000046_0001_39_52_H_._HHH_b1_02119_af2_0001_0000100008_0000001_0_af2pred_0001_af2pred_1 (protein)
chain: SSSSDELFHRVYELYLEASRLYQNGNPEEAEELLREALKLAEENNDPRLFKDVEQFLKALGSSSS
B22: il2ra_site2_3nfp_normal_mot_HHH_b1_04084_000000061_0001_23_39_H_._HHH_b1_06545_0001_0000100008_0000001_0 (protein)
chain: SSSSDEEVRRLIEEAEELLERGDPEEARRVLQRAVLLAAELRDRELFARLNELFELVVELSSSSS
B23: il2ra_site2_3nfp_normal_mot_HHH_b1_03557_000000106_0001_41_55_H_._HHH_b1_02274_0001_0000100002_0000001_1 (protein)
chain: SSSSDEEAREYVEEARELFEEGNHEEARKVLSKAVELVFEAGDFELFAILLELLAKIIQRSSSSS
B24: il2ra_site1_2b5i_sap_9_mot_HHH_b1_08678_af2_000000008_0001_41_54_H_._HHH_b2_03648_0001_0000600031_0000001_0_0001_af2pred_dldesign_0_af2pred (protein)
chain: SSSSSSPLEEAKKLLEEAKEALAAGDRRGALELLEKAYKLASEANDEELMDEIEELAKLVSSSSS
B25: il2ra_site1_1z92_sap_14_mot_HHH_b1_05516_af2_000000202_0001_21_38_H_._HHH_b1_08435_0001_0000100010_0000001_0_0001 (protein)
chain: SSSSSRSEERLRFVLENIELLVENGNERAAKWAIRLAEALARLLNDEEVRERLEELREEVNSSSS
B26: il2ra_site1_1z92_sap_13_mot_HHH_b2_00249_af2_000000052_0001_39_52_H_._HHH_b2_08181_0001_0000500029_0000001_0_0001_af2pred_0001_af2pred (protein)
chain: SSSSDILEKALRFLEEQIELKLKRGNEEAVERLLEHLEKDAKDADDPEAEKFVEEVKREISSSSS
B27: il2ra_site2_3nfp_normal_mot_HHH_b2_07129_000000128_0001_19_36_H_._HHH_b2_06031_0001_0000100003_0000001_1 (protein)
chain: SSSSDEEEKEIEELLERVKELLKEGDPHEAFALLADALYLAVQINNEELRKAVSELTRELYSSSS
B28: il2ra_site1_2b5i_sap_14_mot_HHH_b2_08285_000000041_0001_42_55_H_._HHH_b2_00494_0001_0000300031_0000001_1_0001_af2pred_dldesign_0_af2pred (protein)
chain: SSSSSAEEQVRALLAKARELYEAGRPEEARKLLLLARRVAKKAKDPELVKLVEDEEARLLASSSS
B29: il2ra_site1_2b5i_normal_mot_HHH_b2_03377_af2_000000170_0001_25_41_H_._HHH_b2_07765_0001_0000100006_0000001_0 (protein)
chain: SSSSSSDELEELIERIEEALKEGDAELVAKLALELAKLAARLNDEEAQRFVLEVHRRRKSSSSSS
B30: il2ra_site1_3nfp_normal_mot_HHH_b1_08357_af2_000000270_0001_1_19_H_._HHH_b1_04898_0002_0000400009_0000001_0 (protein)
chain: SSSSSELEERIRELLEELEELLREGDDEEASKLAQEISRLIKELGDNELAEILWELIRRDISSSS
B31: il2ra_site1_1z92_normal_mot_HHH_b1_03834_000000063_0001_1_16_H_._HHH_b1_01329_0001_0000800050_0000001_0 (protein)
chain: SSSSNEESLERRVEFLIEQAEILGDEEVLERLRELLERAQEEGDFRLLLEAAKLIMEAVRNSSSS
B32: il2ra_site1_3nfp_sap_19_mot_HHH_b1_08723_000000044_0001_1_15_H_._HHH_b2_03161_af2_0001_0000300022_0000001_0_0001 (protein)
chain: SSSSSDEEIREEVERLLEEAEKIEDHEEAAKVFQEAYRLARELGDQELADLIYEVIHRWISSSSS
B33: il2ra_site1_2b5i_normal_mot_HHH_b1_01419_af2_000000080_0001_42_53_H_._HHH_b1_01280_af2_0001_0000300026_0000001_0_af2pred_dldesign_0_af2pred (protein)
chain: SSSSSDDEIYDLFLEALRLYQAGKKEEAIKLLEKALELAKKAKDEKAVKELEYFLERVKKSSSSS
B34: il2ra_site1_3nfp_normal_mot_HHH_b2_02053_000000240_0001_1_20_H_._8b3018496bece20695a4731cc719293d_0001_1_0001_0000100004_0000001_0_af2pred_0001_af2pred_1 (protein)
chain: GPEAEKRIVRLALELNSPRLLKKILENLERHLGDPREAERVLSELIAEVLKVPPEEAKEIVEEVK
B35: il2ra_site1_3nfp_normal_mot_ems_3hC_775_af2_000000149_0001_42_60_H_._HEEHE_2118_af2_0001_0000100003_0000001_0 (protein)
chain: DLEEEFKKAVERLAEIAGVPHVEVEVSNGEVEVTFEGDDQQARHASKLVRRAAEAFGIKVEVRVE
B36: il2ra_site2_3nfp_sap_20_mot_ce0e691d864d74cc0dee145e42b7b696_0001_1_af2_000000051_0001_34_49_H_._HHH_b1_03816_af2_0001_0000500031_0000001_0_0001 (protein)
chain: SSSSSDEEKLEEARELYEEGNPEEARKILLHLVSEAEEKGDRELLFRIMALANEVAAALISSSSS
B37: il2ra_site2_2erj_normal_mot_HHH_b1_01239_000000175_0001_43_57_H_._HHH_b1_04971_af2_0001_0000700017_0000001_0 (protein)
chain: SSSSSDSAEEALELAERAFEKGDRAEVRLILRFLELALEDTNDPRVEEAYERVEELLKELSSSSS

target: il2ra, P01589; assay: yeast display titration

Apparent Kd, inactive:
B1 no binding seen, B2 no binding seen, B3 no binding seen, B4 no binding seen, B5 no binding seen, B6 no binding seen, B7 no binding seen, B8 no binding seen, B9 no binding seen, B10 no binding seen, B11 no binding seen, B12 no binding seen, B13 no binding seen, B14 no binding seen, B15 no binding seen, B16 no binding seen, B17 no binding seen, B18 no binding seen, B19 no binding seen, B20 no binding seen, B21 no binding seen, B22 no binding seen, B23 no binding seen, B24 no binding seen, B25 no binding seen, B26 no binding seen, B27 no binding seen, B28 no binding seen, B29 no binding seen, B30 no binding seen, B31 no binding seen, B32 no binding seen, B33 no binding seen, B34 no binding seen, B35 no binding seen, B36 no binding seen, B37 no binding seen
